No constants are given. Whether binding was seen depends on the method and setting. Some binding calls cover weakened binding; strength is not graded here.
Molecular target: C-terminal half of zebrafish Sec10 (zSec10), tryptic fragment after Arg394 (zebrafish) (UniProt B0BLY0)
Assay: SEC; zSec10 treated with trypsin (1:100 by weight, 12-36 h, 4 °C), then Superdex200 10/300 GL in 10 mM Tris-HCl pH 7.5, 50 mM NaCl, 1 mM DTT; peak fractions by SDS-PAGE; both purified

Sequences of proteins named here, by UniProt entry; tags and fusion partners are left off. A change or cut given only in a name is not applied to a line headed by its entry. A line that says so, or that is headed by a name, gives the form on record, which may keep a tag or linker.
C-terminal half of zebrafish Sec10 (zSec10), tryptic fragment after Arg394 (B0BLY0, form named): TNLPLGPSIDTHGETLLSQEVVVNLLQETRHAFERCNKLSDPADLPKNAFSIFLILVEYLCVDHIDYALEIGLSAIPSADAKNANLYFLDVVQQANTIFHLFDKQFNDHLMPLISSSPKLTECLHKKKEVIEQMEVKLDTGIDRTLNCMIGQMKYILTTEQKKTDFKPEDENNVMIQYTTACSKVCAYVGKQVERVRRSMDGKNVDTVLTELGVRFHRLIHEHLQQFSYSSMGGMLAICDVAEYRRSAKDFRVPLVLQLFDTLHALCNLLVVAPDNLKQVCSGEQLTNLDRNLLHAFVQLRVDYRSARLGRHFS
N-terminal half of zebrafish Sec10 (zSec10), tryptic fragment ending at Arg394 (B0BLY0, form named): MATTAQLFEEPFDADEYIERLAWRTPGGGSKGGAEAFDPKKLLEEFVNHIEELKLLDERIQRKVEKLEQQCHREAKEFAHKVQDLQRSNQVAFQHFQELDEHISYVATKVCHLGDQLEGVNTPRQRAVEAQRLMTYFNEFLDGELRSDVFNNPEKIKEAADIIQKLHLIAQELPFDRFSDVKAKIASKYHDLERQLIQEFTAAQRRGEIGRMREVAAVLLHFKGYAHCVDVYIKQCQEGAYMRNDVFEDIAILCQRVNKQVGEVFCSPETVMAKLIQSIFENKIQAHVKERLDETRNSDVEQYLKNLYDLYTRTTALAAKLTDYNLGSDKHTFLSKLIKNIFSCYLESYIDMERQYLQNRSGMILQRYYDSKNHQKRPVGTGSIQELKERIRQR

With “N-terminal half of zebrafish Sec10 (zSec10), tryptic fragment ending at Arg394 (from UniProt B0BLY0 1-394) (domain or fragment)” the binding was “binds”.

Reference: PMC5241887
